Reference: patent US20230102503A1, “BIOMARKERS FOR OXYTOCIN RECEPTOR ANTAGONIST THERAPY” (ObsEva S.A., priority 2020, published 2023)

Tested on: endometrial RNA transcript expression (DPP4, CNTNAP3, CNTN4, CXCL12, TNXB, CTSE, OLFM4, KRT5, KRT6A, IDO2)
Assay: RNA-Seq assay of endometrial tissue mRNA expression before and after administration
Type: in vivo, human
Procedure: Using an RNA-Seq assay, each subject's mRNA expression level of a variety of genes, including DPP4, CNTNAP3, CNTN4, CXCL12, TNXB, CTSE, OLFM4, KRT5, KRT6A, and IDO2, was then assessed to determine whether the expression of each gene increased, decreased, or underwent no significant change due to administration of the compound or placebo.

CO/N=C1/C[C@@H](CO)N(C(=O)c2ccc(-c3ccccc3C)cc2)C1 [Compound (II), (3Z,5S)-5-(hydroxymethyl)-1-[(2′-methyl-1,1′-biphenyl-4-yl)carbonyl]pyrrolidin-3-one O-methyloxime]
Log (Counts per Million) (CNTN4, single 1,800 mg dose): 3.646
Log (Counts per Million) (CNTNAP3, single 1,800 mg dose): −0.2486
Log (Counts per Million) (CTSE, single 1,800 mg dose): 2.566
Log (Counts per Million) (CXCL12, single 1,800 mg dose): 5.586
Log (Counts per Million) (DPP4, single 1,800 mg dose): 5.508
Log (Counts per Million) (IDO2, single 1,800 mg dose): 4.471
Log (Counts per Million) (KRT5, single 1,800 mg dose): 3.252
Log (Counts per Million) (KRT6A, single 1,800 mg dose): 1.033
Log (Counts per Million) (OLFM4, single 1,800 mg dose): 1.885
Log (Counts per Million) (TNXB, single 1,800 mg dose): 7.143
